Patent US8580957B2, “Thetrahydroquinolines derivatives as bromodomain inhibitors” (GlaxoSmithKline LLC, priority 2009, dated 2013)
Some of these results come from one statement about several compounds together.

Each compound was assayed against T1, Bromodomain 2, 3 and 4 (BRD2, BRD3 and BRD4) (assay: Fluorescence Anisotropy Binding Assay). Details: value applies to one or more of BRD2, BRD3, BRD4 (not resolved per target).
T1 construct: fused on or other part: N-terminal six-His tag
Set-up: species or system Human

SMILES | pIC50 in one or more of the BRD2, BRD3 and BRD4 assays
CC(=O)N1c2ccc(-c3ccc(C(=O)O)cc3)cc2[C@@H](Nc2ccc(S(C)(=O)=O)cc2)C[C@H]1C [Example 184] | ≥ 6.5
CC(=O)N1c2ccc(-c3ccc(C(=O)O)cc3)cc2C(Nc2ccc(C#N)cc2)CC1C (stereo not shown) [Example 96] | ≥ 6.5
COC(=O)c1ccc(-c2ccc3c(c2)C(Nc2ccc(C#N)cc2)CC(C)N3C(C)=O)cc1 (stereo not shown) [Example 82] | ≥ 6.5
COC(=O)c1ccc(N[C@H]2C[C@@H](C)N(C(C)=O)c3ccc(-n4cnc(C)c4)cc32)cc1 (racemic) [Example 139, Methyl 4-{[(cis)-1-acetyl-2-methyl-6-(4-methyl-1H-imidazol-1-yl)-1,2,3,4-tetrahydro-4-quinolinyl]amino}benzoate] | ≥ 6.5
CC(=O)N1c2ccc(-n3cnc(C)c3)cc2[C@@H](Nc2ccc(F)cn2)C[C@H]1C (racemic) [Example 140, (cis)-1-Acetyl-N-(5-fluoro-2-pyridinyl)-2-methyl-6-(4-methyl-1H-imidazol-1-yl)-1,2,3,4-tetrahydro-4-quinolinamine] | ≥ 6.5
CNCCn1cc(-c2ccc3c(c2)[C@H](Nc2cc(C)ccn2)C[C@H](C)N3C(C)=O)cn1.Cl [Example 149, (2S,4R)-1-Acetyl-2-methyl-6-{1-[2-(methylamino)ethyl]-1H-pyrazol-4-yl}-N-(4-methyl-2-pyridinyl)-1,2,3,4-tetrahydro-4-quinolinamine hydrochloride] | ≥ 6.5
CC(=O)N1c2ccc(-c3cccc(CN4CCOCC4)c3)cc2C(Nc2ccccc2)CC1C (stereo not shown) [Example 31] | ≥ 6.5
CC(=O)N1c2ccc(-c3ccc(C(=O)N4CCOCC4)cc3)cc2C(Nc2ccc(Cl)cc2)CC1C (stereo not shown) [Example 109] | ≥ 6.5
CCN(c1ccc(Cl)cc1)C1CC(C)N(C(C)=O)c2ccc(-c3ccc(C(=O)NC)cc3)cc21 (stereo not shown) [Example 118] | ≥ 6.5
CNCCn1cc(-c2ccc3c(c2)[C@H](Nc2cccc(C)n2)C[C@H](C)N3C(C)=O)cn1.Cl [Example 147, (2S,4R)-1-Acetyl-2-methyl-6-{1-[2-(methylamino)ethyl]-1H-pyrazol-4-yl}-N-(6-methyl-2-pyridinyl)-1,2,3,4-tetrahydro-4-quinolinamine hydrochloride] | ≥ 6.5
